# Assay results

Source: PubChem BioAssay AID1159506 (NCATS, 2015).

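Luminescence from an EWS-FLI1 target-promoter (NR0B1) reporter, set against a CMV-promoter reporter, two days after silencing single genes in TC32 Ewing sarcoma cells. Each siRNA was applied at 20 nM. A z-score of the log NR0B1-over-CMV signal, less the median of siRNAs with the same seed; more negative means a stronger specific loss of the NR0B1 reporter.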

The strongest results of the screen are mostly left out here. Sequences are the guide (antisense) strand, without overhang.

{"strand": "UGAAGGUCUGUGCUCAGUG", "target gene": "C19orf60", "seed-corrected z-score": "0.3174"}
{"strand": "UUGCGAAUAUCAGUCAUGG", "target gene": "CAPN6", "seed-corrected z-score": "-1.301"}
{"strand": "ACAGUGUUCACUGUACUGC", "target gene": "USHBP1", "seed-corrected z-score": "0.712"}
{"strand": "UCUACAUUAAAUCCAAUGG", "target gene": "ARL1", "seed-corrected z-score": "0.1936"}
{"strand": "UCGGUUCUCGAUGAAAUCC", "target gene": "MKRN2", "seed-corrected z-score": "0.672"}
{"strand": "UUUUCUACGACAUAGAGCC", "target gene": "MPZL1", "seed-corrected z-score": "-0.1965"}
{"strand": "UAACGGUUGAUUCGGAGGC", "target gene": "RABGEF1", "seed-corrected z-score": "0.3542"}
{"strand": "UGAGGUCCAGGUAUAGUAG", "target gene": "FLII", "seed-corrected z-score": "0.7916"}
{"strand": "UUUGUUCCAGCACAGAUCG", "target gene": "TUBGCP5", "seed-corrected z-score": "2.052"}
{"strand": "AUAGUUAUCAUUCGAGCAC", "target gene": "RAB2A", "seed-corrected z-score": "0.05949"}
{"strand": "UCGGUUAUCAUUUAGCAUG", "target gene": "QSER1", "seed-corrected z-score": "-0.4358"}
{"strand": "UAGCUAAUCAUAAUGACCA", "target gene": "RNF149", "seed-corrected z-score": "-0.4489"}
{"strand": "AAUAGGCAAAUAUCUGGUC", "target gene": "CYFIP1", "seed-corrected z-score": "-1.38"}
{"strand": "UUGUUGUCAUCUGUAUACC", "target gene": "DMC1", "seed-corrected z-score": "-0.2993"}
{"strand": "UCUCGUUCUGUGGUCAUUC", "target gene": "TSGA10", "seed-corrected z-score": "-0.4381"}
{"strand": "UUGGUUUCGGAGCCUGUGC", "target gene": "NRN1L", "seed-corrected z-score": "-0.249"}
{"strand": "AUAGUUACGAAUAUGUUCA", "target gene": "AGVR6190", "seed-corrected z-score": "-0.1798"}
{"strand": "AUCUCGAUCAUAUACCUUC", "target gene": "MCTP2", "seed-corrected z-score": "0.2376"}
{"strand": "UACUUUAGAACGGAUUUUC", "target gene": "ITGB3", "seed-corrected z-score": "0.3033"}
{"strand": "UUGGUGUUGAUUGCAAUGG", "target gene": "ALOX5", "seed-corrected z-score": "1.599"}
{"strand": "UUUUCGUAGAGCACCAGCC", "target gene": "FAM129B", "seed-corrected z-score": "0.8108"}
{"strand": "UUGAGUGCAAGGUCUGUUG", "target gene": "SCYL3", "seed-corrected z-score": "0.9629"}
{"strand": "UAAAGCACCUUCAAUGCCG", "target gene": "IL36RN", "seed-corrected z-score": "0.9675"}
{"strand": "UUCCGUAAUUCUUUGACCC", "target gene": "RAB21", "seed-corrected z-score": "-0.2739"}
{"strand": "UGUAGGAAGAGAGACAGCC", "target gene": "RHBDF2", "seed-corrected z-score": "-0.6274"}
{"strand": "UCGAGUAUAUGAUACGAUC", "target gene": "MMP7", "seed-corrected z-score": "0.02541"}
{"strand": "UGAGUGAGUAUCCCUAGCC", "target gene": "NAGK", "seed-corrected z-score": "-0.0445"}
{"strand": "UGAAUGUCCGCAUCUAGCC", "target gene": "EEFSEC", "seed-corrected z-score": "-0.322"}
{"strand": "UGAGUUUAAACUUCUCGCC", "target gene": "DNAJA4", "seed-corrected z-score": "-0.247"}
{"strand": "UCUUGUUCAUCCACUAUUG", "target gene": "TMC2", "seed-corrected z-score": "0.8688"}
{"strand": "AACGUAGCGAGAGACAUCC", "target gene": "PRAMEF5", "seed-corrected z-score": "0.3458"}
{"strand": "UUUUGACUUUAUAUCACCC", "target gene": "SRSF6", "seed-corrected z-score": "0.05664"}
{"strand": "UUCCGGAUGAACUUGUGGU", "target gene": "TRIM50", "seed-corrected z-score": "-0.08439"}
{"strand": "UGAGAGUUAUGAAUCUUCG", "target gene": "LACE1", "seed-corrected z-score": "-0.2969"}
{"strand": "UUCAUCGACAGAUUGAGCU", "target gene": "DUSP6", "seed-corrected z-score": "-0.1615"}
{"strand": "UUCAUGUUCAGUGUCAUCU", "target gene": "LASP1", "seed-corrected z-score": "0.139"}
{"strand": "AUUUGUCUGAUAGCAGCUC", "target gene": "ETS2", "seed-corrected z-score": "-0.3948"}
{"strand": "UUUCAUAGAAAUCCGUUUC", "target gene": "MELK", "seed-corrected z-score": "0.07404"}
{"strand": "UCACGGACUCGAAUAAACC", "target gene": "LIG1", "seed-corrected z-score": "-0.07093"}
{"strand": "UAUCUACACUCUCCGAUUC", "target gene": "HNRNPD", "seed-corrected z-score": "0.7897"}
{"strand": "UUUUCUUGCAUUCAGAUGC", "target gene": "IPCEF1", "seed-corrected z-score": "0.8295"}
{"strand": "AGUAGGAUAAGAACAGAGA", "target gene": "LOC400576", "seed-corrected z-score": "0.202"}

For reference, 2 entries once more:

| strand | target gene | seed-corrected z-score |
|---|---|---|
| `UUUUCUACGACAUAGAGCC` | MPZL1 | -0.1965 |
| `UUCAUCGACAGAUUGAGCU` | DUSP6 | -0.1615 |